This note sets out measurements from US20120270914A1, “SPLIT-LUCIFERASE C-MYC SENSOR AND USES THEREOF” (THE BOARD OF TRUSTEES OF THE LELAND STANFORD JUNIOR …, priority 2011, published 2012).

Chains of the proteins cited; added tags and fusions are not shown. Lines headed by an entry give the natural chain unless they say otherwise; changes in a name come on top.
UniProt P49841: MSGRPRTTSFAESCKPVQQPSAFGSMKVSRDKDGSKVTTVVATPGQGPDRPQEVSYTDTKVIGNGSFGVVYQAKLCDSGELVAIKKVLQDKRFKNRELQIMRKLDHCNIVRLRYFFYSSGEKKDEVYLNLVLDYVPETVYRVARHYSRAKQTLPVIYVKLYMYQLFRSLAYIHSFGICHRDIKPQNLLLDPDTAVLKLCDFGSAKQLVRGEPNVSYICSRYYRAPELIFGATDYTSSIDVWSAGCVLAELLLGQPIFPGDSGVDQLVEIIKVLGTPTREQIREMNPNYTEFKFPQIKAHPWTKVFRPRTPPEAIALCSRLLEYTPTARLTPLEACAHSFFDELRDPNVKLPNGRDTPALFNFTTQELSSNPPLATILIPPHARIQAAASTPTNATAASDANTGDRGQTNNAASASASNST

These are yes or no findings as the source states them, for the method shown. Some entries that bind do so weakly or less than the wild type.

This assay concerns the target NFL-c-Myc (firefly) [luciferase: P08659]. The experiment in a line: split firefly luciferase complementation, BLI in SKBR3 cells.

“GSK 35-433-CFL (from UniProt P49841 35-420)”: the binding entry was “binds”.

As to “GSK Full-CFL (from UniProt P49841 1-420)”, the binding entry is reported as “binds”.
